In the supplement of paper PMC3334620:
In all, about 33,000 sequences were measured (“E-score (-0.5 to 0.5)”: median about -0.0034, highest 2% from about 0.25 on). Some of the results follow.

biological target: T1, Yap3 (UniProt P38749); assay: PBM E-score (8-mer binding enrichment) (E-score (-0.5 to 0.5)); higher = stronger / more preferred TF binding; settings: protein concentration: 100 nM; construct: GST-full length
T1 sequence: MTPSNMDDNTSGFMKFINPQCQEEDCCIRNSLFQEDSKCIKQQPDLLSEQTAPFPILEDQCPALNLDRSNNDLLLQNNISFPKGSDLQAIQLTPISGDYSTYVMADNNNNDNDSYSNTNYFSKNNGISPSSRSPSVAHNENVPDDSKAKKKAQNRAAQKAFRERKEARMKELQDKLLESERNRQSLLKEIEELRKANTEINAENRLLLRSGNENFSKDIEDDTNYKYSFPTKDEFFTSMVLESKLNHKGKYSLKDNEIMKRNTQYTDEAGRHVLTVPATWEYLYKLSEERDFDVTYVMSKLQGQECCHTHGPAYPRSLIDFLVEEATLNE
How it was run: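 Full-length yeast transcription factors or their DNA-binding domains, GST-tagged and expressed with PURExpress, were applied at about 100-200 nM to universal all-10-mer Agilent arrays. These arrays had been made double-stranded by primer extension on fresh or once-stripped slides. Detection used fluorescent anti-GST, normalisation used masliner, and E-scores for ungapped eight-base words pooled with reverse complements came from the Universal PBM Analysis Suite.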

Sequence	PBM E-score
CCTCTCGC	-0.0838
ATCGCAAT	0.168
TAATATTA	0.347
CGCGACAA	0.272
AGCCACAT	0.0698
AACAGTGT	0.0419
CGACGATC	0.123
CACAAGCC	-0.186
CCCATTTA	0.0472
ATGATCAT	0.0725
CGAGGGCC	-0.0155
AAAGGAGG	-0.232
CAATAATC	0.142
GAAGTCTC	-0.16
CGGAAACA	0.0155
ACGAACGT	0.0464
CATAGACG	0.0717
GATACACC	0.161
AGGCCGGA	-0.139
CTCGGATA	0.158
GCTTAAGC	-0.066
TAGACCTA	-0.128

Sequence	PBM E-score
CGTCAAGA	-0.1
GCGCGAGA	0.124
CTTCTTTC	0.027
ATGGGGTC	-0.233
TGAGGTAA	0.067
CGTAAACC	-0.00624
GACTTATC	-0.047
CACTTGAC	-0.0554
AGCTACTA	0.0917
GCCCCGGC	-0.319
AAGAGCCG	-0.0966
GGGCACGA	-0.131
CGGTCCAC	-0.282
GCCGCGAC	-0.148
AATCATCG	-0.00013
GGGCGACA	-0.182
GAGGAATA	0.135
ATCCCGAG	0.103
ATTAGGCC	0.047
CATGTTAA	0.188
ACCAGTCC	-0.186
ACTTTTTG	0.141

Sequence	PBM E-score
GTACTACA	0.173
TAGAATGA	0.125
ATCGGAGG	-0.0686
ACATGCGG	-0.00632
AGTGGAGG	-0.0981
GCTATGCA	-0.196
CTAGAGCA	-0.126
ATCTACTC	0.0794
ACGCCGTG	-0.112
ACTGTAAT	0.201
GTACAGGA	0.0424
ATTCTCAC	0.141
CGGTTGAA	0.184
AGAGACGC	0.0051
ATGTGACA	0.0927
CGTAGGTA	-0.111
CCCAATCA	0.0162
GCCTTGTA	-0.0764
CTATCGCA	-0.036
CTGTGCTA	-0.186
GAGCCACA	-0.104
CGCCAAAG	-0.11

Retrieved one by one from the list above:
Sequence	PBM E-score
TAGAATGA	0.125
CCCAATCA	0.0162
ATTCTCAC	0.141
ATCGGAGG	-0.0686
ATGTGACA	0.0927
ATCTACTC	0.0794

Continued:

Sequence	PBM E-score
ATAGATTG	0.119
AAACTCAC	-0.0485
ACGACTGC	-0.0752
AGATCCAA	-0.13
CGAATACC	0.00264
AGAACTAG	-0.117
TCGCGCGA	0.138
TAACGTTA	0.19
ATTGATCC	0.0152
AGGCCGGG	-0.308
AGATCTCC	-0.0529
CGCAGAAG	-0.0447
ATACCGGA	0.0214
GGGTCGAA	-0.277
CAAGTGCG	-0.0461
ATGTGCCG	-0.121
GTGGCAGA	-0.173
ATAAGAGG	0.112
ACAAGAAG	0.143
ACCTGTAG	-0.0988
CATCCCGG	-0.147
CGAAATTA	0.181

Sequence	PBM E-score
GAACATGA	0.139
CCGCTTAC	0.0416
AACCCTGA	0.146
TACAAACA	0.206
TTGCCAAA	-0.0116
CCCTCGCC	-0.179
CATGCCTA	-0.0966
ATCGATTG	0.177
AACGCCAG	0.0892
GCAAGGGC	-0.142
CTTATGCC	0.0004
CACGCGCG	-0.0466
CCGGCACC	-0.205
GCGTAGGA	-0.0348
CTGAACAC	0.205
AGCCATCC	-0.193
AGGCCGTC	-0.263
GAGTACCC	-0.135
CGCCCAGC	-0.234
AGCTGGGA	-0.0381
CACAGCCA	-0.123
ATCCGAGA	0.22
